Laboratory results reported in US20040137514A1, “Use of antibodies against specific mhc-peptide complexes” (priority 2000, published 2004).
At least one peptide structure holds a part that was inferred or is arguable (an end, a ring closure or a residue). No end group written: not given here.

What was measured:
T cells of RA patients = settings: cited from earlier work
BLCL = experiment: FACS control: peptide binding to BLCL; set-up: species or system human; settings: data not shown
Description: Briefly, 10^6 BLCL were incubated with 40 μg peptide in 500 μl DMEM/HAM's F12 or blank medium for 4 h at 37° C. After this incubation, the cells were washed with PBS, 2% FCS, 0.02% sodiumazide. Approximately 2×10^5 cells were incubated for 1 h, 4° C. with 130 μl MAb-containing hybridoma supernatant plus 20 μl PBS, 20% FCS, 0.02% sodiumazide. After washing the cells twice with PBS, 2% FCS, 0.02% sodiumazide, they were incubated for 1 h, 4° C. with 50 μl PBS, 20% FCS, 0.02% sodiumazide plus 10 μl Goat anti-mouseIg/FITC (Beckton & Dickinson). Subsequently, the cells were washed three times with PBS, 2% FCS, 0.02% sodiumazide and finally resuspended in 400 μl PBS, 2% p-formaldehyde. As a control for peptide binding, cells were incubated with biotinylated HC gp39263-275 and stained with streptavidin/PE (Beckton & Dickinson). As a control for HLA-DR expression, staining was performed with anti-HLA/DR, L243 (purified Ig from hybridoma ATCC HB 55). Stained cells were analyzed with the FACScan™ (Beckton & Dickinson). In all cases, forward and side scatter analysis was applied to eliminate dead cells and debris from further analysis.
These homozygous BLCL were loaded with HC gp-39263-275 and subsequently stained with ORG38948 12A. In a series of experiments, ORG38948 12A stains HC gp-39^263-275 in the context of both DRB1*0401 and DRB1*0407 (Table V). […]

RSFTLASSETGVG [HC gp-39^263-275, RSFTLASSETGVG]
recognition by T cells of RA patients (T cells of RA patients): recognized | binding of peptide to the BLCL (BLCL): binds to the BLCL
